Results are given in words; binding and its absence hold for the method and conditions named. Binding seen in cells or lysates may run through a third protein. Some binding calls cover weakened binding; strength is not graded here. Where a sequence is shown, tags or fusion partners need not be part of it.
Molecular target: Nic96-GFP (S. cerevisiae) (UniProt P34077)
Experiment: co-IP

Chains of the proteins cited; added tags and fusions are not shown.
UniProt P34077: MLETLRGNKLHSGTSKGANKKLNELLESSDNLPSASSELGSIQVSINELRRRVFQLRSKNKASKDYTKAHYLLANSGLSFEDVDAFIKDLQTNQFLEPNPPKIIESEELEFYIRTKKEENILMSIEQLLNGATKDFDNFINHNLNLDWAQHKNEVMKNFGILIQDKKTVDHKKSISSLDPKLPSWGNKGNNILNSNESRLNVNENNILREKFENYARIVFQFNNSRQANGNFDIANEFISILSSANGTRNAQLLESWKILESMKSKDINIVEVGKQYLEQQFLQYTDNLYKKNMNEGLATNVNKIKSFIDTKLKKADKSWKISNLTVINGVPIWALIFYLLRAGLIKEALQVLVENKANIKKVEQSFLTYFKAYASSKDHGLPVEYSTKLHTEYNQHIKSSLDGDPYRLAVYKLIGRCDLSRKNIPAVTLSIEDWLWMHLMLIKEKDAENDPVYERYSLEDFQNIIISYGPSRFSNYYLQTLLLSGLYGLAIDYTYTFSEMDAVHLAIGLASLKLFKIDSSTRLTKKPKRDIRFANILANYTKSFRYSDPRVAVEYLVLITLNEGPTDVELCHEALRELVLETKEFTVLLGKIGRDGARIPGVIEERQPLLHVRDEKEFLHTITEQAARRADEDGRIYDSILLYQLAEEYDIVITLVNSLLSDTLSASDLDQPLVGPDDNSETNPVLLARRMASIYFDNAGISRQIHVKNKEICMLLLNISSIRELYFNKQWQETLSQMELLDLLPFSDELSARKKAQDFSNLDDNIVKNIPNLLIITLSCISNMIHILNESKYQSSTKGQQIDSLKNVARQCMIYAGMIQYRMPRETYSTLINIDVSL

B1: Brl1-HA (protein, UniProt P38770 1-471)
chain: MESFENLSIRDSFTSGMEHVDEELGGLSDLSISKQGPTLSPQLINRFMPHFPSSPSPLRNTLDFSAAKADEEEDDRMEIDEVDDTSFEEEYNNEPIETHTEATENAVVEEIEATPEERQKQEKNESQDQSVEEVENIVSPHRSTVIKALLSPTDLGVAAATKVEGVVPLPPSANQDDNESSNNNAEGEDIIRNEEVEDEIKSSLGNHKSSQYANAFDSEIIKRELRSRSKYQPIQVSFNTHNYFYSDKDGIKTYSLTKPNHNKIDEFYDQNEAFKLPKPWSPNSHPASRASYALMSYLQLFLNAITTVVIFSFILSFIIALQKDLKSTWEQRKHELQYESRICQEQYLTNRCNQTPGLPALGEQCAIWKQCMDRNNDIFFRARSTLSAKLFGDIINSFIDPLNWKTLFVIFCGVITWCFSSNFLLGFVRAKSYYGNGIKTYPLPSSPKSPTSEETHSSMTASGEDSHLLKQ
For B1, the binding was “binds”.

From publication doi:10.1101/2025.07.22.665954
